In the supplement of paper PMC12819154, “High-throughput peptide-centric local stability assay extends protein–ligand identification to membrane proteins, tissues and bacteria” (Nature Structural & Molecular Biology, 2025) one finds log2 fold change data, which are given here for 35 targets.

Amino acid sequences for entries named in this document (tags omitted). A change or cut given only in a name is not applied to a line headed by its entry.
UniProt Q9CW46: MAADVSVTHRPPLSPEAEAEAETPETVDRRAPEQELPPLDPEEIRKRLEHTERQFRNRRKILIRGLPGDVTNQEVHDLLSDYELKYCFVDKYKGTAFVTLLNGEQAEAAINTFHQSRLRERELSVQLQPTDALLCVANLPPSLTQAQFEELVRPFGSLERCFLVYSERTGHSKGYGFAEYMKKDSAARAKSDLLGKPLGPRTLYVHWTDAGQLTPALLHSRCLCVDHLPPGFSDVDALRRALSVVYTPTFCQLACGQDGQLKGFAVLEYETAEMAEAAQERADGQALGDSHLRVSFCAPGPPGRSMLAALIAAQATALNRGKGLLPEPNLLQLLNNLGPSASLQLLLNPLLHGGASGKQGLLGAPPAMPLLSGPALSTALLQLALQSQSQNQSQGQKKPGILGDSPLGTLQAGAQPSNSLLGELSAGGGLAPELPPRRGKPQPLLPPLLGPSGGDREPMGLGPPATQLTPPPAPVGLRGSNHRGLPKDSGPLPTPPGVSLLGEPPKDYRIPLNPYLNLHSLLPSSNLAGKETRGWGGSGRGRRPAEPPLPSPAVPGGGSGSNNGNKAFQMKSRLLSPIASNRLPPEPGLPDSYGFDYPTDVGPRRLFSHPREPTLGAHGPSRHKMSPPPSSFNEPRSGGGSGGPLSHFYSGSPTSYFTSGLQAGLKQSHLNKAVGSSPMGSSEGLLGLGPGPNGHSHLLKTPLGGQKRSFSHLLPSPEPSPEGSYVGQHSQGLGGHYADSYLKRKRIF
UniProt Q9CVD2: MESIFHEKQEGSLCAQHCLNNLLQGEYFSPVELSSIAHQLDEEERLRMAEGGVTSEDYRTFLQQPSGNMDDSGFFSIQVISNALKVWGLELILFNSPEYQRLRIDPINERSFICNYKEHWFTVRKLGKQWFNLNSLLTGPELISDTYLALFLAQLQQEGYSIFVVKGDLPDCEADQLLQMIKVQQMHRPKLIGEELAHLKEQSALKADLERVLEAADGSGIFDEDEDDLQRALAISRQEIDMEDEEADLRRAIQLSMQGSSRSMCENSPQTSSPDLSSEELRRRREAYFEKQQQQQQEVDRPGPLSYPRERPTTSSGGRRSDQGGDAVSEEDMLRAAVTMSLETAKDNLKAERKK
UniProt Q9D011: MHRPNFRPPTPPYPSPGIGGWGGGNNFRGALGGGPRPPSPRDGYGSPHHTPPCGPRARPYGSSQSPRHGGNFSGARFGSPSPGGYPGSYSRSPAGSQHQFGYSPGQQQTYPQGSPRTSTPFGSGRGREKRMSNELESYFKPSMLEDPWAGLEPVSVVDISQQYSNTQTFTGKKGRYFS
UniProt Q9CRC8: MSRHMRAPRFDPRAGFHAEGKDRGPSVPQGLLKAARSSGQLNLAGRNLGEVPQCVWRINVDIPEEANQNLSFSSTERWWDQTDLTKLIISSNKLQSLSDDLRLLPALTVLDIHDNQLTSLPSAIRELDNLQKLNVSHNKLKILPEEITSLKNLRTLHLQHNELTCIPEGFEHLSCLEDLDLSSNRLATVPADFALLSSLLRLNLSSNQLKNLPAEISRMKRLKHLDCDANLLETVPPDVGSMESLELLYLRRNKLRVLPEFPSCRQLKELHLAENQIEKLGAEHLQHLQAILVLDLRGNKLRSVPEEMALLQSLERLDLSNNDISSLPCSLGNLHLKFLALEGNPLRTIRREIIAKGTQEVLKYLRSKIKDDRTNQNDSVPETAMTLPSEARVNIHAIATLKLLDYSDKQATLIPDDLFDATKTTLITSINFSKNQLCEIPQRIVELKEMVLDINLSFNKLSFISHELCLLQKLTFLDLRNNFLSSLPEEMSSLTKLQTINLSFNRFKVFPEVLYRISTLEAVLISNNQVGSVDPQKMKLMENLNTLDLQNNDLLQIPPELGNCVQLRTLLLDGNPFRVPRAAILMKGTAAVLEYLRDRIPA
UniProt Q9CZX5: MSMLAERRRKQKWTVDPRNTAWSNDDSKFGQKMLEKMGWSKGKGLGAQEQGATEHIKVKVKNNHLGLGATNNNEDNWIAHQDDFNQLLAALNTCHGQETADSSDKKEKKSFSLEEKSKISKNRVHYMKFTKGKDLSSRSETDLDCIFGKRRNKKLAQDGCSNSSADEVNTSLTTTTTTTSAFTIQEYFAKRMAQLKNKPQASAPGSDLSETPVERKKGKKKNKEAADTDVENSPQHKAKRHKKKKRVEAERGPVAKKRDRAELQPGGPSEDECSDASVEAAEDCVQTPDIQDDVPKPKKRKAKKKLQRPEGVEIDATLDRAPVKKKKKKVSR
UniProt Q9CXF4: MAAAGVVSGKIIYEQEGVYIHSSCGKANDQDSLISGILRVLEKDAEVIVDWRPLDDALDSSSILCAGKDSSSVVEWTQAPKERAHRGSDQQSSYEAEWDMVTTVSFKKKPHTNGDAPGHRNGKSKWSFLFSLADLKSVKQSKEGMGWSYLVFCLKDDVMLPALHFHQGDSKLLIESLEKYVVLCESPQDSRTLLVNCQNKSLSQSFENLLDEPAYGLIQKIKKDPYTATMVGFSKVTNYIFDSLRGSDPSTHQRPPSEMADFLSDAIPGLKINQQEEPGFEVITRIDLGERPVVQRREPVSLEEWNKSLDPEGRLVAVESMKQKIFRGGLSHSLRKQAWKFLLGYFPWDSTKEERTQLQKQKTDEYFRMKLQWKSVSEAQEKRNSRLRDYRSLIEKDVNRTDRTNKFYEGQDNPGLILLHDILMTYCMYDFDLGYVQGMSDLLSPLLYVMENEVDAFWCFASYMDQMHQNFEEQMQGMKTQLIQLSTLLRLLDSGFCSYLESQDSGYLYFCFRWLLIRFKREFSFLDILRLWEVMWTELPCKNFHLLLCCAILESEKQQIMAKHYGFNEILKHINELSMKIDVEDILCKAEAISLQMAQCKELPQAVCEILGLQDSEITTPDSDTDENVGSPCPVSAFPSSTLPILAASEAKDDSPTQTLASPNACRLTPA
UniProt Q9CWY8: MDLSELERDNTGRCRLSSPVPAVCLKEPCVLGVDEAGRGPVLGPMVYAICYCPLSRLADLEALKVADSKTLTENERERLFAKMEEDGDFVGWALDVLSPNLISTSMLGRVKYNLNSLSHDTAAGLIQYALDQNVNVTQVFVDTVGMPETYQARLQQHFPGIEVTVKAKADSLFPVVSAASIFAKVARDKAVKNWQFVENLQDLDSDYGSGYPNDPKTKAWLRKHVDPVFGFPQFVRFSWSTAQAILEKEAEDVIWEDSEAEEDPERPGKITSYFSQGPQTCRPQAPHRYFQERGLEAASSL
UniProt Q9CRC6: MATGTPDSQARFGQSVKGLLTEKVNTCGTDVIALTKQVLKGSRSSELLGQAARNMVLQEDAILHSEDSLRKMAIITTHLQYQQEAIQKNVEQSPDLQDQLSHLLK
UniProt Q9CR80: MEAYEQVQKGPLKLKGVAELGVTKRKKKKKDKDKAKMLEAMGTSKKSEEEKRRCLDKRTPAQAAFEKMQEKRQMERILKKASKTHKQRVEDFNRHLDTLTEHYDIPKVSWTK
UniProt Q9CYT6, whole entry: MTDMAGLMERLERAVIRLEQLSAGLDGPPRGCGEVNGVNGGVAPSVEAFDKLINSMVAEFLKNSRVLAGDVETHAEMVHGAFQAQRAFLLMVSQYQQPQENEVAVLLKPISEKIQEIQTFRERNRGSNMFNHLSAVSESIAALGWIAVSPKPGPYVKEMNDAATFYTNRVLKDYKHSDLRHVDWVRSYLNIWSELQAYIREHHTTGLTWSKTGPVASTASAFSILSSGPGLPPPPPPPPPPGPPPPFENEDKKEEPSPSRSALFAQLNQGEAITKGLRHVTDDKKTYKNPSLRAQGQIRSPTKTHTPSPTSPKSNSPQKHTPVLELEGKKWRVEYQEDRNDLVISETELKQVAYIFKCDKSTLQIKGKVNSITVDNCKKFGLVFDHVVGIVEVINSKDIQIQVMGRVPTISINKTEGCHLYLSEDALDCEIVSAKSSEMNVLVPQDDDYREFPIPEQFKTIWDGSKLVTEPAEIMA
UniProt Q9D0M0, whole entry: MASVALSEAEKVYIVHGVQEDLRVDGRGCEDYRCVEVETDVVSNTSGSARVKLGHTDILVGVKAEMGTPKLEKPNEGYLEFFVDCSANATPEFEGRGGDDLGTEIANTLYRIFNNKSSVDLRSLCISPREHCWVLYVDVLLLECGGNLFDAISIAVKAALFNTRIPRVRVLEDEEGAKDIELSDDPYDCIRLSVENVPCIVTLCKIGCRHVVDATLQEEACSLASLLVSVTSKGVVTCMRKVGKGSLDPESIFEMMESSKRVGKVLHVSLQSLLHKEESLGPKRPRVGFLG
UniProt Q9CZ62: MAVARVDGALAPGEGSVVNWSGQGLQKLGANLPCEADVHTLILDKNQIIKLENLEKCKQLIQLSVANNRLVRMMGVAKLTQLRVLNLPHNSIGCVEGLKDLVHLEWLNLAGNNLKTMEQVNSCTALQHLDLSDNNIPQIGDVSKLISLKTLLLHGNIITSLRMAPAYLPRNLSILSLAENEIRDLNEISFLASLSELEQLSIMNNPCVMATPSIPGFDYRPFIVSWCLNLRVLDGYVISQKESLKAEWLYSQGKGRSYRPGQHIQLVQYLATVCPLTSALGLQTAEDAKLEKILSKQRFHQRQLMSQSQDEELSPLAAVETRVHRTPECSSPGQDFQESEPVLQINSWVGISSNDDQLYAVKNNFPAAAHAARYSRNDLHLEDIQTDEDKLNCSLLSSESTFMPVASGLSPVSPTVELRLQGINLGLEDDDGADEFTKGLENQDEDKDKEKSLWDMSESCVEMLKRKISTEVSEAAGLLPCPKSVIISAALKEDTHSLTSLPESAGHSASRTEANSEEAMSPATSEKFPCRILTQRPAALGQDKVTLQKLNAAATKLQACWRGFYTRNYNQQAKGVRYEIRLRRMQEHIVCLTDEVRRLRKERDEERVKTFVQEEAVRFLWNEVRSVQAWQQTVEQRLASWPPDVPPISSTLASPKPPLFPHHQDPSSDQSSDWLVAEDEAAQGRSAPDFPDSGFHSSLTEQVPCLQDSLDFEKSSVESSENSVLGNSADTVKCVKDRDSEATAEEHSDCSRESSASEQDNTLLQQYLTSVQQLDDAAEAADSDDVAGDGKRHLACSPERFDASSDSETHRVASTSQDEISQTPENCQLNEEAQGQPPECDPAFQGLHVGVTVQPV
UniProt Q9CZ92: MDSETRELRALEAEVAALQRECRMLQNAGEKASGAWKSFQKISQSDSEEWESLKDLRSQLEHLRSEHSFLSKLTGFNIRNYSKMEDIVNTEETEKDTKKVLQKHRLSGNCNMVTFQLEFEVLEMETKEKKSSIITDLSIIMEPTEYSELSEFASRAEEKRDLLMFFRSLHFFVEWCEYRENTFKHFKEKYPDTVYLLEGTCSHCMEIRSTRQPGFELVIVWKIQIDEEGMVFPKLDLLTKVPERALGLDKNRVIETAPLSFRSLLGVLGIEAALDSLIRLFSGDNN
UniProt Q9CS74: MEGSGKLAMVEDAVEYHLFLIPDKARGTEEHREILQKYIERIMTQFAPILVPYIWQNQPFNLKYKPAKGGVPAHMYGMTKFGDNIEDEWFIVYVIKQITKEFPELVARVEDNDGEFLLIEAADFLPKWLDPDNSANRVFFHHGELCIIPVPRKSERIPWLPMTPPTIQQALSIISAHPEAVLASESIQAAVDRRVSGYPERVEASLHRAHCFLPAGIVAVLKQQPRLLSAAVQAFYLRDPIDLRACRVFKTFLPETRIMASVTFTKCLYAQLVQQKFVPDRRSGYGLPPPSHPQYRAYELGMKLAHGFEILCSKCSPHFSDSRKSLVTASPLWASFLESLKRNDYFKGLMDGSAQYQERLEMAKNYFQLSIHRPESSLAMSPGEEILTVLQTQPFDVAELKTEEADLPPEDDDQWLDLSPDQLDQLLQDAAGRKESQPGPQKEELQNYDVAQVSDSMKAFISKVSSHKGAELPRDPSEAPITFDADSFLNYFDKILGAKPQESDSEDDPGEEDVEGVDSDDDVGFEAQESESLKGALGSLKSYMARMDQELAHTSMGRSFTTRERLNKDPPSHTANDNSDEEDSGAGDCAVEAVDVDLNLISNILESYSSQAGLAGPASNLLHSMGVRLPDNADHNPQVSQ
UniProt Q9CXZ1, whole entry: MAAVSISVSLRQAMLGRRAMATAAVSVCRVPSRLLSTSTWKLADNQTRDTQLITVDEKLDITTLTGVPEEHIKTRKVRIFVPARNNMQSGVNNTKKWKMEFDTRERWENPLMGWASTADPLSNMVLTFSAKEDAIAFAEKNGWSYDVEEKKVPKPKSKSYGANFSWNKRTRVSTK
UniProt Q9CZU4: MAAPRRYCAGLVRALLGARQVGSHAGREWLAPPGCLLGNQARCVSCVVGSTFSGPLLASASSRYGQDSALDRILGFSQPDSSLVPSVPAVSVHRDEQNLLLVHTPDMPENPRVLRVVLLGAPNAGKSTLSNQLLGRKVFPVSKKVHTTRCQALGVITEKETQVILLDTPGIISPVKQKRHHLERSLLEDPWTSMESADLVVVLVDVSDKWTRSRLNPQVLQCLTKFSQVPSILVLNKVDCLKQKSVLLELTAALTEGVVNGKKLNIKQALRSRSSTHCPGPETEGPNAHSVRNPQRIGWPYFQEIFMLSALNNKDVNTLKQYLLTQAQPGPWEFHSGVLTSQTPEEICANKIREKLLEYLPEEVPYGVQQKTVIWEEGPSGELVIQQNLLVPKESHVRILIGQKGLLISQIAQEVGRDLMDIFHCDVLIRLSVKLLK

The other results are listed elsewhere or left out. Most entries show no effect beyond the scatter of the controls.

Compound in this experiment: CN[C@@H]1C[C@H]2O[C@@](C)([C@@H]1OC)n1c3ccccc3c3c4c(c5c6ccccc6n2c5c31)C(=O)NC4 [staurosporine]
In words: log2 fold change of tryptic peptide abundance, ligand vs vehicle (limited proteolysis) (log2 ratio); higher = more trypsin-susceptible (destabilized). The following applies: ligand concentration: 20 uM; sample: mouse liver crude lysate; replicate design: treated separately.
Turning to “UniProt Q9CRC3 (peptide sequence: KSDVVLDK, peptide start residue: 88)”, the log2 fold change was -0.292. As for “UniProt Q9CW46 (peptide sequence: LFSHPREPTLGAHGPSR, peptide start residue: 606)”, the log2 fold change amounted to 0.243. In the case of “UniProt Q9CVD2 (peptide sequence: EHWFTVR, peptide start residue: 118)”, the log2 fold change amounted to 0.217.

Turning to “UniProt Q9CUB6 (peptide sequence: KRDEELAK, peptide start residue: 430)”, the log2 fold change was determined as 0.0597.

“UniProt Q9CYR6 (peptide sequence: LAQELDDGKGK, peptide start residue: 390)”: the log2 fold change is -0.452. Regarding “UniProt Q9D011 (peptide sequence: DGYGSPHHTPPCGPR, peptide start residue: 42)”, the log2 fold change is 0.129. Under “UniProt Q9D0T2 (peptide sequence: CVAFIGQAR, peptide start residue: 96)” stands 0.0983. Then “UniProt Q9CRC8 (peptide sequence: VLPEFPSCR, peptide start residue: 257)”, with 0.078. For the target “UniProt Q9CZX5 (peptide sequence: SETDLDCIFGK, peptide start residue: 139)”, the log2 fold change was -0.1.

“UniProt Q9CXF4 (peptide sequence: HYGFNEILK, peptide start residue: 564)”: the log2 fold change was 0.282.

Regarding “UniProt Q9D024 (peptide sequence: IMNEEDPEK, peptide start residue: 444)”, the log2 fold change was determined as 0.144. Regarding “UniProt Q9CWY8 (peptide sequence: ITSYFSQGPQTCRPQAPHR, peptide start residue: 270)”, the log2 fold change is 0.511.

Turning to “UniProt Q9CX80 (peptide sequence: FFVNFPSAK, peptide start residue: 49)”, the log2 fold change is -0.375. “UniProt Q9CYV5 (peptide sequence: EFHNFIPR, peptide start residue: 434)”: the log2 fold change was -0.3.

In the case of “UniProt Q9CRC6 (peptide sequence: SSELLGQAAR, peptide start residue: 44)”, the log2 fold change is -0.211.

As to “UniProt Q9CR80 (peptide sequence: HLDTLTEHYDIPK, peptide start residue: 95)”, the log2 fold change came to 0.122. Then “UniProt Q9CR61 (peptide sequence: DYCAHYLIR, peptide start residue: 57)”, with 0.0569; and “UniProt Q9D074 (peptide sequence: IMESGLQK, peptide start residue: 414)”, with -0.0891. Take “UniProt Q9CYT6 (peptide sequence: TYKNPSLR, peptide start residue: 286)”: the log2 fold change turned out to be 0.22. Under “UniProt Q9CWL8 (peptide sequence: VHQILNMR, peptide start residue: 515)” stands 0.214.

Turning to “UniProt Q9CWG8 (peptide sequence: STGPITVAEYMK, peptide start residue: 48)”, the log2 fold change came to 0.249. As for “UniProt Q9CZ57 (peptide sequence: TLALLQTGCCR, peptide start residue: 185)”, the log2 fold change came out at 0.342. Consider “UniProt Q9D0M0 (peptide sequence: VLHVSLQSLLHKEESLGPK, peptide start residue: 265)”, for which the log2 fold change worked out at 0.0632. “UniProt Q9CWK3 (peptide sequence: LSGLADQMVAR, peptide start residue: 203)”: the log2 fold change came out at 0.0989. With “UniProt Q9CZ62 (peptide sequence: FDASSDSETHR, peptide start residue: 801)”, the log2 fold change is -0.476. As to “UniProt Q9CWD8 (peptide sequence: HKTHIFGADGAR, peptide start residue: 249)”, the log2 fold change is -0.239. Take “UniProt Q9CZ92 (peptide sequence: SQLEHLR, peptide start residue: 58)”: the log2 fold change was -0.118. With “UniProt Q9D0U1 (peptide sequence: TSVCSQYVIR, peptide start residue: 204)”, the log2 fold change is -0.334. With “UniProt Q9CZX8 (peptide sequence: VLQALEGLK, peptide start residue: 103)”, the log2 fold change turned out to be 0.096. Regarding “UniProt Q9CS74 (peptide sequence: CSPHFSDSR, peptide start residue: 315)”, the log2 fold change is -0.292. Then “UniProt Q9CXZ1 (peptide sequence: NGWSYDVEEK, peptide start residue: 141)”, with -0.137. With “UniProt Q9CZW5 (peptide sequence: NREPLMPSPQFIK, peptide start residue: 249)”, the log2 fold change was -0.164. With “UniProt Q9CWS0 (peptide sequence: QHELYVGVLGSK, peptide start residue: 46)”, the log2 fold change was -0.152. With “UniProt Q9CZU4 (peptide sequence: LNPQVLQCLTK, peptide start residue: 215)”, the log2 fold change was 0.14. Then “UniProt Q9CRG1 (peptide sequence: IKELFQK, peptide start residue: 547)”, with -0.0351.
